Measurements from PubChem BioAssay AID1745850 (National Center for Advancing Translational Sciences (NCATS), 2022).
Among all 2,100 compounds or so, about 260 (12%) were called active. Inconclusive results, whose numbers are uncertain, are shown with a selection of clear calls. The call rests on the fitted dose curve; in most records, active means well fitted cell-killing curve with a large enough effect; inconclusive means small, poorly fitted or top-dose-only effect, or effect the other way; inactive means flat fitted curve, though single readings scatter. Potencies beside an inconclusive call are fits to weak or partial responses and may not hold up.
Potency means the concentration at half of the fitted maximal effect.

Assay: Viability Counterscreen for Confirmatory qHTS for Inhibitors of ATXN expression; further: nearly all actives have a fitted effect of over 50% in size
Details: HEK-293 ATXN2-luc cells viability, CellTiter-Fluor, 24 h
Summary of the method: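 Cells with an ATXN2-luciferase reporter were dosed in a dilution series for 24 h at 37 degrees C. Viability was read first with Gly-Phe-AFC at 25 uM final (fluorescence, ex 405/em 540), then SteadyGlo luminescence. Medium-only wells defined 100% inhibition.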
With `O=c1c(O)c(-c2ccccc2)oc2ccccc12` the Potency was inconclusive: 1 µM [rising, partial curve, poor fit].
For `C/C(=N\NC(=O)CCCNc1ccc(C)cc1)c1ccccn1`, the Potency was inconclusive: 22.4 µM [cytotoxic, single point].
For `O=C1C(Cl)=C(N2CCC(C(=O)O)CC2)C(=O)c2ccccc21`, the Potency was “inactive”.
For `COc1cccc(-c2cc3nc(-c4ccccc4)cc(N4CCN(C(=O)c5ccoc5)CC4)n3n2)c1`, the Potency was inconclusive: 2.82 µM [cytotoxic, single point].
With `Cc1c(CC(=O)NCCCC(=O)O)c(=O)oc2cc3c(cc12)CCC(C)(C)O3` the Potency was “inactive”.
In the case of `CCCC(=O)OC/C(O)=C(\C#N)c1nc2ccccc2[nH]1`, the Potency is reported as inconclusive: 3.16 µM [cytotoxic, single point].
With `Cc1cccc(OCCn2cc(/C=N/NC(=O)c3ccncc3)c3ccccc32)c1` the Potency was “inactive”.
For `Cc1sc2nc(C3CC3)nc(N3CCN(C(=O)c4ccc(F)cc4)CC3)c2c1C`, the Potency was inconclusive: 28.2 µM [cytotoxic, single point].
With `COC(=O)c1ccc(/C=C2/SC(=S)N(CCCC(=O)Nc3ccccn3)C2=O)cc1` the Potency was active: 28.2 µM.
For `O=C(N/N=C/c1c(O)ccc2ccccc12)c1cccnc1`, the Potency was inconclusive: 10 µM [cytotoxic, partial curve, poor fit].
In the case of `C=CCSc1nc2ccccc2n1C(=O)/C=C/c1ccc(OC)c(OC)c1`, the Potency is reported as inconclusive: 2.24 µM [cytotoxic, partial curve].
With `OC(c1ccccc1)(c1nc(-c2ccc3ccccc3c2)cs1)C(F)(F)F` (stereo not given) the Potency was “inactive”.
For `COc1ccc(NC2=NCC(Cc3ccc(Br)cc3)S2)cc1` (stereo not given), the Potency was “inactive”.
In the case of `CN(C)CCCN(C(=O)c1ccco1)c1nc2cc3c(cc2s1)OCO3`, the Potency is reported as “inactive”.
For `O=C(CNc1ccc(F)cc1)N/N=C/c1c(O)ccc2ccccc12`, the Potency was inconclusive: 10 µM [cytotoxic, partial curve].
For `O=C(CN1CCCC1)N/N=C/c1c(O)ccc2ccccc12`, the Potency was inconclusive: 7.94 µM [cytotoxic, partial curve].
In the case of `c1ccc(-c2sc3ccccc3c2-c2ccc(OCCN3CCCC3)cc2)cc1`, the Potency is reported as inconclusive: 39.8 µM [cytotoxic, single point].
For `O=c1[nH]c(=O)n(C2C[C@H](O)[C@@H](CO)O2)cc1C(F)(F)F` (stereo not given in full), the Potency was inconclusive: 20 µM [cytotoxic, partial curve, poor fit].
In the case of `CC(=O)c1ccc(NC(=O)COC(=O)c2c3c(nc4ccccc24)/C(=C\c2cccs2)CCC3)cc1`, the Potency is reported as inconclusive: 25.1 µM [cytotoxic, single point].
In the case of `CCCC(=O)NC(c1ccc(OC)cc1)c1c(O)ccc2ccccc12` (stereo not given), the Potency is reported as inconclusive: 11.2 µM [cytotoxic, partial curve].
For `CN(C)c1ccc2c(c1)OC(N)=C(C#N)C2c1cccc(F)c1` (stereo not given), the Potency was “inactive”.
With `CCC(O)(CC)C(=O)N/N=C/c1cc(Br)cc(Br)c1O` the Potency was inconclusive: 31.6 µM [cytotoxic, partial curve].
For `N#CC1=C(N)N2C(=C(C#N)C1c1cccc(Br)c1)Nc1ccccc12` (stereo not given), the Potency was inconclusive: 28.2 µM [cytotoxic, partial curve].
In the case of `O=C(Nc1cccc(C(F)(F)F)c1)N1CCC(c2nc(-c3ccc(F)cc3)no2)CC1`, the Potency is reported as inconclusive: 39.8 µM [cytotoxic, single point].
In the case of `COc1ccccc1N1CCN(Cc2cc(Br)c(O)c3ncccc23)CC1`, the Potency is reported as inconclusive: 7.94 µM [cytotoxic, full curve].
With `CCC(c1nnnn1C1CCCC1)N(Cc1cccs1)Cc1cc2cc(C)ccc2[nH]c1=O` (stereo not given) the Potency was inconclusive: 31.6 µM [cytotoxic, partial curve].
For `C=CCc1ccccc1OCC(=O)N/N=C/c1ccc(OC(C)=O)cc1OC(C)=O`, the Potency was inconclusive: 28.2 µM [cytotoxic, single point].
In the case of `Cc1cc2c(c(/C=C/C(=O)c3ccccc3)c1)OC1(C=C2)Oc2ccccc2C(=O)N1C` (stereo not given), the Potency is reported as active: 25.1 µM.
For `COc1ccc(-c2ccc(C(c3c(C)[nH][nH]c3=O)c3c(C)[nH][nH]c3=O)o2)c([N+](=O)[O-])c1`, the Potency was inconclusive: 22.4 µM [cytotoxic, partial curve, poor fit].
For `O=C(Cc1ccc(-c2ccccc2)cc1)Nc1ccccn1`, the Potency was inconclusive: 39.8 µM [cytotoxic, single point].
In the case of `O=C(CSc1ccc2ccccc2n1)N/N=C/c1ccccc1O`, the Potency is reported as inconclusive: 22.4 µM [cytotoxic, partial curve].
For `COCCNc1nc(-c2cc(C)n(CCc3ccc(OC)cc3)c2C)cs1`, the Potency was “inactive”.
With `c1cc2c(cc1-c1cnc3n1CCC3)OCCO2` the Potency was “inactive”.
With `COc1cc2cc(C(=O)NC(C)c3cccc4ccccc34)c(N)nc2cc1OC` (stereo not given) the Potency was “inactive”.
With `OCCN1CCN(c2nc(-c3ccccc3O)nc3ccccc23)CC1` the Potency was inconclusive: 28.2 µM [cytotoxic, partial curve].
With `Cn1c(SCC(=O)N/N=C/c2ccc([N+](=O)[O-])s2)nnc1-c1ccc(Cl)cc1` the Potency was active: 11.2 µM.
With `COc1cc(C(C)=O)ccc1OCC(=O)Nc1ccc(C)c(S(=O)(=O)N2CCCCCC2)c1` the Potency was inconclusive: 3.55 µM [cytotoxic, single point].
With `CC[C@H]1CN2CCc3cc(OC)c(OC)cc3[C@@H]2C[C@@H]1C[C@H]1NCCc2cc(OC)c(OC)cc21` the Potency was inconclusive: 1.12 µM [cytotoxic, partial curve, poor fit].
With `CCC1=C(CC2NCCc3ccccc32)CC2c3cc(OC)c(OC)cc3CCN2C1` (stereo not given) the Potency was active: 10 µM.
In the case of `CCCCN(C(=O)c1cccc2c(=O)c(C)c(-c3ccccc3)oc12)c1ccccc1`, the Potency is reported as inconclusive: 39.8 µM [cytotoxic, single point].
For `COc1ccccc1-c1cc2nc(-c3ccccc3)cc(N3CCN(C(=O)c4ccoc4)CC3)n2n1`, the Potency was active: 15.8 µM.
For `CCn1ccnc1CN1CCCC(C(=O)c2ccc3cc(OC)ccc3c2)C1` (stereo not given), the Potency was “inactive”.
With `CC1CCCN(S(=O)(=O)c2ccc(C(=O)Nc3nnc(-c4ccccc4Cl)o3)cc2)C1` (stereo not given) the Potency was “inactive”.
With `OC[C@@H]1[C@@H](c2ccc(Cl)cc2)C(c2cccc(Cl)c2)=NN1c1ccccc1` the Potency was inconclusive: 22.4 µM [rising, partial curve].
In the case of `CCCCC(=O)N(C)c1c(CC)nc2c(OCc3ccc(Cl)cc3Cl)cccn12`, the Potency is reported as “inactive”.
For `COC(=O)c1c(NC(=O)c2ccc([N+](=O)[O-])o2)sc2c1CCN(C(C)C)C2`, the Potency was active: 28.2 µM.
With `CC(=O)Oc1ccc2ccccc2c1C(NC(=O)Cc1ccccc1)c1ccccc1Cl` (stereo not given) the Potency was inconclusive: 3.98 µM [cytotoxic, partial curve].
For `Cc1ccc(/C=C2/CNC/C(=C/c3ccc(C)cc3)C2=O)cc1`, the Potency was active: 11.2 µM.
For `CC(C)CCNC(=O)COc1cccc2c1OC(C)(C)C2`, the Potency was “inactive”.
With `COC(=O)c1c(C)oc2ccc(N(C(=O)c3ccncc3)S(=O)(=O)c3ccc(C)cc3C)cc12` the Potency was “inactive”.
In the case of `CCOC(=O)c1c(SCCN2CCCC2)n(-c2ccccc2)c(=S)n(-c2ccccc2)c1=O`, the Potency is reported as active: 2.51 µM.
In the case of `Cc1cc(Nc2cccc([N+](=O)[O-])c2)n2c(nc3ccccc32)c1C#N`, the Potency is reported as active: 5.01 µM.
With `Cc1nc2ccccc2n1-c1nc(-c2ccco2)cc(C(F)(F)F)n1` the Potency was inconclusive: 20 µM [cytotoxic, partial curve].
For `c1ccc2c(c1)c1c(c3ccccc32)CN2CCCC2C1` (stereo not given), the Potency was “inactive”.
For `O=C(NCc1ccco1)c1ccc(-c2cccc(Cl)c2)o1`, the Potency was “inactive”.
With `Cn1nnnc1Sc1ncnc2scc(Br)c12` the Potency was active: 20 µM.
With `CC(C)C1C(=O)N(Cc2cn(CCC3OCCO3)nn2)CCS(=O)(=O)N1Cc1ccc(-c2ccc(Cl)cc2)cc1` (stereo not given) the Potency was inconclusive: 25.1 µM [cytotoxic, single point].
With `Cc1c(OCC(=O)NC2CC(C)(C)NC(C)(C)C2)ccc2c1oc(=O)c1ccccc12` the Potency was inconclusive: 7.08 µM [cytotoxic, single point].
With `CCCCCc1ccc(OCCC[n+]2ccccc2)c(CCCCC)c1` the Potency was active: 20 µM.
For `NC(=S)n1[nH]c(-c2ccc([N+](=O)[O-])cc2)c(N=Nc2cccc(Cl)c2)c1=O`, the Potency was active: 11.2 µM.
With `COc1cccc(/C=N/NC(=O)CC(C)O)c1OC/C=C/c1ccccc1` (stereo not given) the Potency was “inactive”.
With `CCOc1cc(CNCCO)cc(Br)c1OCc1ccccc1` the Potency was inconclusive: 28.2 µM [cytotoxic, single point].
For `COc1ccc(CC(N)c2csc(NC(=O)CCc3ccccc3)n2)cc1` (stereo not given), the Potency was inconclusive: 39.8 µM [cytotoxic, single point].
For `Cc1ccc(S(=O)(=O)Nc2ccc(O)c3cccnc23)cc1`, the Potency was inconclusive: 39.8 µM [cytotoxic, single point].
In the case of `O=C(c1cnc(N2CCN(c3ccccn3)CC2)c2ccccc12)N1CCN(c2cccc(Cl)c2)CC1`, the Potency is reported as inconclusive: 14.1 µM [cytotoxic, partial curve, poor fit].
In the case of `Cn1nnnc1Sc1ncnc2scc(-c3ccsc3)c12`, the Potency is reported as inconclusive: 8.91 µM [cytotoxic, full curve].
In the case of `Cc1cccc(OCC(=O)NCC(=O)N/N=C/c2cc(Br)cc(Br)c2O)c1`, the Potency is reported as inconclusive: 11.2 µM [cytotoxic, partial curve].
With `Cc1ccnc(NC(=S)N2CCN(c3cccc(C(F)(F)F)c3)CC2)c1` the Potency was inconclusive: 25.1 µM [cytotoxic, partial curve].
In the case of `COc1ccccc1C(=O)NNC(=O)c1nn(Cc2ccccc2)c(=O)c2ccccc12`, the Potency is reported as inconclusive: 39.8 µM [cytotoxic, single point].
For `C=CCNc1oc(-c2ccc(Cl)cc2)nc1C#N`, the Potency was “inactive”.
